# About 910 (0.23%) of roughly 390,000 compounds were called active. This list was built around the results that the source calls inconclusive (neither active nor inactive); the mix of calls is not that of the screen. The call rests on the fitted dose curve; in most records, active means well fitted inhibition curve with a large enough effect; inconclusive means small, poorly fitted or top-dose-only effect; inactive means no such curve, though single readings can be large or run the other way. Potencies of inconclusive entries are doubtful fits and often do not repeat.
# Protein sequences, listed by entry. Tags and fused reporters are not part of them. Lines headed by an entry give the natural chain unless they say otherwise; changes in a name come on top.
# UniProt O94782: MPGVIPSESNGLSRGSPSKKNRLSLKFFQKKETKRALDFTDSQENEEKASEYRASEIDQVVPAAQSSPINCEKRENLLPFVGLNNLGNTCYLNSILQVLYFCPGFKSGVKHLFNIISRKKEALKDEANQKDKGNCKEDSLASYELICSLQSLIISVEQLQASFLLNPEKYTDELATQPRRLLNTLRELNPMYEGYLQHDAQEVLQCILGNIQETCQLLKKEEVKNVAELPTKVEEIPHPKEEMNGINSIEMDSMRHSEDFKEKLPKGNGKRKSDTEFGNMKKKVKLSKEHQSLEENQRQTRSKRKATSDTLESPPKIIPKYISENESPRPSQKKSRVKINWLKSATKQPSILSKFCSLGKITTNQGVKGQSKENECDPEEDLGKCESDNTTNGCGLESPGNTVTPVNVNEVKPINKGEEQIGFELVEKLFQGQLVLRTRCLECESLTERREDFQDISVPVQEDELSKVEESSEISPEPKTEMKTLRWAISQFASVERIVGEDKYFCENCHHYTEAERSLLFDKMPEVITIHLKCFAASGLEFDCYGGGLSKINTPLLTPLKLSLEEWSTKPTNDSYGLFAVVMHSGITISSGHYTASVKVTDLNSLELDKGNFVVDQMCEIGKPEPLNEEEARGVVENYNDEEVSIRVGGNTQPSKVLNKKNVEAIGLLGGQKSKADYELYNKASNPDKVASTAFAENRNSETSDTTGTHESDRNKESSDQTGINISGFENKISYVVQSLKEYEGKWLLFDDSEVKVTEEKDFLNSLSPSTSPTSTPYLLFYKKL
# Biological target: Ubiquitin carboxyl-terminal hydrolase 1 (Homo sapiens) (UniProt O94782)
# Experiment: Inhibitors of USP1/UAF1: Primary Screen; further: nearly all actives have a fitted effect of over 60% in size
# Conditions: recombinant USP1/UAF1, Ub-Rhodamine cleavage fluorescence; activity change, negative = inhibition: at 57.1 µM (top of the series)
# Procedure, shortened: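 High-throughput fluorogenic screen: 1nM USP1/UAF1 complex, Ub-Rho substrate 150nM final, 50mM HEPES pH 7.8 with 0.5mM EDTA, 0.1 mg/ml BSA, 1mM TCEP and 0.01% Tween-20.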
# On the % scale 0 is the no-effect control and ±100 the full control effect; potency means the concentration at half of the fitted maximal effect.
SMILES,"activity change, negative = inhibition",Potency
Cn1c(N=Nc2ccc(N3CCOCC3)cc2)[n+](C)c2ccccc21,inactive: -17.8%,–
COc1ccc(C(=O)NCC(c2ccc3c(c2)OCO3)N2CCN(C)CC2)cc1OC (stereo not drawn),–,"inconclusive: 39.8 µM [inhibitor, single point]"
Cc1ccc(NC(=O)c2cc(S(=O)(=O)N3CCCCC3)ccc2N2CCOCC2)c(C)c1,–,"inconclusive: 15.8 µM [inhibitor, partial curve, poor fit]"
N#Cc1c2c(c(NCc3ccco3)n3c1nc1ccccc13)CCC2,inactive: -15.3%,–
COc1cc(/C=C2/C(=O)ON=C2c2ccccc2)ccc1O,inactive: -11.4%,–
COc1cc2c(cc1N)-c1ccc(N)cc1C2=O,inactive: -33.3%,–
COc1ccc(C(=O)Oc2ccc(C3NC(=O)c4c(sc5c4CCN(C)C5)N3)cc2OC)cc1 (stereo not drawn),–,"inconclusive: 39.8 µM [inhibitor, partial curve, poor fit]"
O=C(CNC(=O)C12CC3CC(CC(C3)C1)C2)N1CCCC(C(F)(F)F)C1 (stereo not drawn),–,"inconclusive: 10 µM [inhibitor, partial curve, poor fit]"
Fc1ccc(NC(=S)NCc2ccc3c(c2)OCO3)cc1,inactive: -0.2%,–
COc1ccc(Cc2nnc(-c3ccc(F)cc3)o2)cc1OC,–,"inconclusive: 8.91 µM [inhibitor, partial curve]"
O=C(Cc1cc(=O)[nH][nH]1)N/N=C/c1cccc2ccccc12,inactive: -15.3%,–
CCOc1ccc(-n2c(SCC(=O)c3ccccc3)nc3c([nH]c4ccccc43)c2=O)cc1,–,"inconclusive: 0.355 µM [inhibitor, full curve, poor fit]"
CCCCCC1CC1C(=O)N/N=C/c1ccc(N(C)C)cc1 (stereo not drawn),inactive: -26.2%,–
CCc1cc(Cn2nc(-c3ccccc3)cc2C(=O)NCc2cccc(Br)c2)on1,–,"inconclusive: 11.2 µM [inhibitor, partial curve, poor fit]"
CCc1ccc(C(=O)c2cn(CC(=O)Nc3cccc(C)c3C)c3nc(C)ccc3c2=O)cc1,–,"inconclusive: 5.01 µM [inhibitor, partial curve]"
Cc1ccc(-n2c(=O)[nH]c3sc4c(c3c2=O)CCCC4)cc1,–,"inconclusive: 0.398 µM [inhibitor, full curve, poor fit]"
O=C(CN(CCO)Cc1ccccc1)N1CCN(S(=O)(=O)c2ccccc2)CC1,–,"inconclusive: 0.282 µM [inhibitor, full curve, poor fit]"
COc1cccc(CN2CCc3ccc(NC(=O)CCc4ccc(C)cc4)cc3C2)c1O,–,"inconclusive: 79.4 µM [inhibitor, partial curve, poor fit]"
COc1ccc(Nc2nnc(-c3ccncc3)s2)cc1Cl,inconclusive: -27.2% [inhibitor],–
CSc1ccc(/C=C/c2nc3ccccc3n2S(=O)(=O)c2ccc(F)c(C)c2)cc1,–,"inconclusive: 0.316 µM [inhibitor, full curve, poor fit]"
CCSc1nc2sc3c(c2c(=O)n1-c1ccc(C)cc1)CCN(C)C3,–,"inconclusive: 20 µM [inhibitor, partial curve]"

# Three of the compounds above, with bars between the fields.
SMILES | activity change, negative = inhibition | Potency
N#Cc1c2c(c(NCc3ccco3)n3c1nc1ccccc13)CCC2 | inactive: -15.3% | –
COc1cc(/C=C2/C(=O)ON=C2c2ccccc2)ccc1O | inactive: -11.4% | –
COc1cc2c(cc1N)-c1ccc(N)cc1C2=O | inactive: -33.3% | –

# (listing goes on)

SMILES,"activity change, negative = inhibition",Potency
CC1=C([N+](=O)[O-])C(c2cccc(Br)c2)C2=C(N1)c1ccccc1C2=O (stereo not drawn),–,"inconclusive: 50.1 µM [inhibitor, partial curve, poor fit]"
COc1ccc([C@H]2C[C@H](O)[C@@H](n3cc(-c4ccc(F)cc4)nn3)CN2C(=O)C2CCCCC2)cc1,–,"inconclusive: 0.282 µM [inhibitor, full curve, poor fit]"
COC(=O)C1=C(C)NC2=C(C(=O)CC(C)(C)C2)C1c1ccccn1 (stereo not drawn),–,"inconclusive: 0.631 µM [inhibitor, full curve, poor fit]"
CCOc1cc(CN2CCN(c3cccc(C(F)(F)F)c3)CC2)ccc1OC,inactive: -8.73%,–
Cc1ccc(S(=O)(=O)NCc2ccccc2)cc1C(=O)N(C)CC(=O)Nc1c(Cl)cccc1Cl,–,"inconclusive: 7.08 µM [inhibitor, full curve, poor fit]"
CC(C)CNC(=O)C(=O)NCCCN1CCOCC1,inactive: -11%,–
COc1cccc(NC(=O)C2CCN(S(=O)(=O)c3ccc4[nH]c(=O)oc4c3)CC2)c1,inactive: -15.8%,–
Cc1cccc(NC(=O)CSc2nc(C)c(Cc3ccccc3)c(=O)[nH]2)c1C,–,"inconclusive: 126 µM [inhibitor, partial curve, poor fit]"
COc1ccc(Br)cc1C1CC(=O)N2CN(Cc3ccccc3)CSC2=C1C#N (stereo not drawn),–,"inconclusive: 3.98 µM [inhibitor, full curve]"
Cc1cc(=O)[nH]c(NN=C2CCCCC2C)n1 (stereo not drawn),–,"inconclusive: 0.708 µM [inhibitor, full curve, poor fit]"
CC(C)C(=O)N1CCN(c2ccccc2NC(=S)NC(=O)/C=C/c2ccco2)CC1,–,"inconclusive: 39.8 µM [inhibitor, single point]"
Cc1ccccc1/C=C\c1nc(O)c([N+](=O)[O-])c(=O)[nH]1,–,"inconclusive: 2.51 µM [inhibitor, full curve, poor fit]"
O=[N+]([O-])c1ccc(C=NN=Cc2ccc([N+](=O)[O-])cc2)cc1,–,"inconclusive: 44.7 µM [inhibitor, partial curve, poor fit]"
Cc1csc(NC(=O)c2ccc(COc3ccccc3)o2)n1,–,"inconclusive: 31.6 µM [inhibitor, partial curve]"
CN(C)S(=O)(=O)c1cccc(NC(=S)Nc2cccc3cnccc23)c1,–,"inconclusive: 35.5 µM [inhibitor, partial curve, poor fit]"
Cc1c(N2C(=O)/C(=C/c3cccc4ccccc34)SC2=S)c(=O)n(-c2ccccc2)n1C,–,"inconclusive: 25.1 µM [inhibitor, partial curve]"
Cc1cccc(-n2c(=O)[nH]c3c(C(N)=O)nc(-c4ccccc4Cl)nc32)c1,–,"inconclusive: 0.631 µM [inhibitor, full curve, poor fit]"
Cc1csc(NC(=O)CCNC(=O)c2ccccc2Cl)n1,–,"inconclusive: 0.794 µM [inhibitor, full curve, poor fit]"
O=C(O)Cc1ccc2sc(-c3ccccc3)nc2c1,inactive: -5.26%,–
O=C(O)c1cc(-c2ccccc2)n(-c2ccc(Cl)cc2Cl)n1,–,"inconclusive: 0.631 µM [inhibitor, full curve, poor fit]"
CCOP(=O)(NC12CC3CC(CC(C3)C1)C2)NC12CC3CC(CC(C3)C1)C2,–,"inconclusive: 0.708 µM [inhibitor, full curve]"

SMILES,"activity change, negative = inhibition",Potency
CC(=O)N1CCc2c(sc3c2c(=O)n(-c2ccccc2)c(=O)n3Cc2cccc(C(F)(F)F)c2)C1,–,"inconclusive: 8.91 µM [inhibitor, partial curve]"
COCCNC(=O)c1cn(C)c2ccc(S(=O)(=O)N(C)C3CCCCC3)cc2c1=O,–,"inconclusive: 31.6 µM [inhibitor, partial curve, poor fit]"
CCCCCCCCc1nc(SC(C)C(=O)O)n[nH]1 (stereo not drawn),inactive: -16.2%,–
COC(=O)c1ccc(OC(=O)c2cnccn2)cc1,–,"inconclusive: 15.8 µM [inhibitor, partial curve]"
Fc1ccc(-n2cc(CNCCc3cccnc3)c(-c3ccccc3Cl)n2)cc1,–,"inconclusive: 89.1 µM [inhibitor, partial curve, poor fit]"
COc1cccc(/C=C/c2ccccn2)c1O,–,"inconclusive: 39.8 µM [inhibitor, partial curve]"
CC(C)(C)c1ccc(-c2n[nH]c(=S)n2CC2CCCO2)cc1 (stereo not drawn),–,"inconclusive: 11.2 µM [inhibitor, partial curve, poor fit]"
COC1=NC(=C(c2ccccc2)c2ccccc2)OC1=O,–,"inconclusive: 63.1 µM [inhibitor, partial curve, poor fit]"
COc1ccc2nc3sc(C(=O)N4CCN(c5ccc(F)cc5)CC4)cc3cc2c1,–,"inconclusive: 3.98 µM [inhibitor, full curve]"
CCN1C(=O)[C@@H]2[C@@H](c3ccc(-c4ccccc4)cc3)N3CCCC[C@@]3(C(=O)OC)[C@@H]2C1=O,–,"inconclusive: 44.7 µM [inhibitor, partial curve, poor fit]"
COC(=O)N/N=C\c1c(C)[nH]n(-c2ccccc2)c1=O,inactive: -16.4%,–
COC1=C(Nc2ccccc2OC)C(=O)c2ccccc2C1=O,–,"inconclusive: 35.5 µM [inhibitor, partial curve, poor fit]"
COc1ccc(Cc2nc3ccc(C(=O)N(C)CCCN4CCOCC4)cc3o2)cc1,–,"inconclusive: 0.708 µM [inhibitor, full curve, poor fit]"
COc1cccc(CNC(=O)C2CCN(C(=O)c3sccc3-n3cccc3)CC2)c1,–,"inconclusive: 1.12 µM [inhibitor, full curve]"
CCCN(CCC)C(=O)C1CCCN(c2ncnc3onc(-c4ccc(F)cc4)c23)C1 (stereo not drawn),–,"inconclusive: 112 µM [inhibitor, partial curve, poor fit]"
Cc1ccc(CSCCC(=O)N2CCN(c3cc(C)ccc3C)CC2)cc1,–,"inconclusive: 14.1 µM [inhibitor, partial curve]"
CC(NC(=O)c1ccc(Br)o1)c1ccc(-n2ccnc2)cc1 (stereo not drawn),–,"inconclusive: 35.5 µM [inhibitor, partial curve, poor fit]"
OC1CCCN(Cc2ccccc2)C1 (stereo not drawn),–,"inconclusive: 0.794 µM [inhibitor, full curve, poor fit]"
COc1cc(C(=O)NNC(=O)C2CC=CCC2C(=O)O)cc(OC)c1OC (stereo not drawn),inactive: -3.61%,–
O=C(CSc1ccccc1C(=O)O)c1ccc(Cl)cc1,–,"inconclusive: 316 µM [inhibitor, partial curve, poor fit]"
Cc1ccc(S(=O)(=O)C(CNC(=O)COc2ccc(Cl)cc2)c2ccco2)cc1 (stereo not drawn),–,"inconclusive: 0.1 µM [inhibitor, full curve]"

# Source: PubChem BioAssay AID743255 (National Center for Advancing Translational Sciences (NCATS), 2014)
